Source: PubChem BioAssay AID1259308 (NCATS, 2017)
The whole screen tested about 59,000 reagents; this is a part drawn at random. About 1,510 of them (2.6%) were called active. 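Calls use total luciferase alone and ignore viability, so some active siRNAs may act by altering cell number.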 A number with no mark means an inactive call. Reagents against one gene are numbered here. Not all columns of the deposit are shown. Reagent sequences are not shown.

- Assay: 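Genes whose loss raises luciferase production in HEK293 cells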 (primary screen)
- Cells: human HEK293 embryonic kidney cells stably expressing firefly luciferase (HEK-CMV-Luc2-Hygro)
- Knock-down reagent: single siRNA against human genes, 0.8 pmol siRNA per well
- Time to read-out: 72 h
- Detection: 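Luciferase light (ONE-Glo) measured on one replicate plate set and viability (CellTiter-Glo) on the other, scaled to a negative control siRNA, with robust z-scores and luciferase per cell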
- Reading the numbers: total luciferase, z-score: higher = more reporter protein produced
- Active means: 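Active when the median/MAD z-score for overall luciferase is greater than 3; a gene was taken forward for validation with new siRNAs if at least two of its three siRNAs passed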
- Meaning of the calls: active = raised luciferase; inactive = no rise

For RBPMS #1, how do the results read?
total luciferase, z-score: -1.92

For RBPMS #2, what does the deposit list?
total luciferase, z-score: -0.721

What is on record for RBPMS #3?
total luciferase, z-score: 2.14

How did the screen score DSEL #1?
total luciferase, z-score: -0.98

For DSEL #2, how do the results read?
total luciferase, z-score: -0.0347

Which result is listed for DSEL #3?
total luciferase, z-score: 1.05

For NIT2 #1, what does the deposit list?
total luciferase, z-score: 0.897

For NIT2 #2, how do the results read?
total luciferase, z-score: -0.552

With NIT2 #3, what was measured?
total luciferase, z-score: 1.21

With SLC6A7 #1, what was measured?
total luciferase, z-score: 0.738

What did the screen give for SLC6A7 #2?
total luciferase, z-score: 0.578

How did the screen score SLC6A7 #3?
total luciferase, z-score: -0.126

With C22orf31 #1, what was measured?
total luciferase, z-score: 0.951

For C22orf31 #2, what does the deposit list?
total luciferase, z-score: -0.104

Which result is listed for C22orf31 #3?
total luciferase, z-score: 1.68

With ARHGAP31 #1, what does the deposit list?
total luciferase, z-score: -0.477

Which result is listed for ARHGAP31 #2?
total luciferase, z-score: 0.655

For ARHGAP31 #3, how do the results read?
total luciferase, z-score: -1.91

How did the screen score TSKU #1?
total luciferase, z-score: -0.772

What did the screen give for TSKU #2?
total luciferase, z-score: 3.45 (active)

Which result is listed for TSKU #3?
total luciferase, z-score: 1.71

Part of the list above, set out differently.
{"gene":"ARHGAP31","reagent no.":1,"total luciferase, z-score":-0.477}
{"gene":"ARHGAP31","reagent no.":2,"total luciferase, z-score":0.655}
